No constants are given. Whether binding was seen depends on the method and setting. Some results given as binding are weak or reduced against the parent protein; the word gives no strength.
B1: SV4 (designed binder)
chain: MEEELQIIQPDLSVSVAAGESAILHCTITSLFPVGPIQWFRGAGPARVLIYNQRQGPFPRVTTVSETTKRENMDFSISISNITPADAGTYYCIKFRKGSPDTEFLSGAGTELSVRAKPS
B2: SV4-DSPE (protein)
chain: MEEELQIIQPDLSVSVAAGESAILHCTITSLFPVGPIQWFRGAGPARVLIYNQRQGPFPRVTTVSETTKRENMDFSISISNITPADAGTYYCIKFRKGSPDTEFLSGAGTELSVRAKPS

Amino acid sequences for entries named in this document (tags omitted). Residues count along the entry.
UniProt Q08722, residues 19-139: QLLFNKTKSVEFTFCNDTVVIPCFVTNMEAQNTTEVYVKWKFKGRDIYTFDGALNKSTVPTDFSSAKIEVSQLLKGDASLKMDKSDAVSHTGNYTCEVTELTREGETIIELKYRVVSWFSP

Molecular target: recombinant CD47 protein (UniProt Q08722)
Experiment: SPR; recombinant CD47 coupled to CM5 chip

| Binder | binding |
| --- | --- |
| B1 | binds |
| B2 | binds |

— US20230322893A1, “CD47 BINDER AND LIPOSOME COMPLEX FOR CANCER TREATMENT” (priority 2020, published 2023)
